{"source": "paper doi:10.1101/710020", "binders": {"B1": {"name": "Spt8-myc (protein, UniProt P38915 1-602)", "chain": "MDEVDDILINNQVVDDEEDDEEMLSGLENDSKQDLEGNDDGGEDEEDDDDDDEDDDDDEDEREDDDEQEDDDGEDDAARMDKTATPTNEHQHDEQKAAAAGAGGAGDSGDAVTKIGSEDVKLSDVDGGVGSREASSSTHEASANGEVYEYYKHMLNAAQIADSYNIYPTAAIPIQTHVNALAVSRGLKYLFLGGSDGYIRKYDLLNTLEGKLSLTILQKHSLAESIQNAGILQSYWENEIPQKKSEMKLSANKTDYEPKVSPVHSLEVQSECLFILSGLQNGGITMQGVRYMEGSIAHYFKGRNGHTQIVNILRLNGQEDRFLSGSWDKRLLEWDLQTGDIVNEFKKSRSELSSLEMRPLYSSVDVSGNVNSGKENENADDDMDSLFGDEDEDEKQDAGNEPVETGDGSNGEENKEQISEESLNIVYDESVFMTSGLNGSVHIWDRRMTQSPALSLERGAGVPPWCLSACWGVDGDHVYAGRRNACVEQFDLKMPSKPIHNLKLPSISGPVSCVKAMPNNKHLLCASRDNIRLYNVEIAVDASNSTTKSSKVPFLIVPGHHGGIISNLYLDPTSRFIISTSGNRGWQGNSTDTTLIYDIDLE"}}, "biological_target": "T1, Spt20-TAP (S. cerevisiae) (UniProt P50875)", "T1 sequence": "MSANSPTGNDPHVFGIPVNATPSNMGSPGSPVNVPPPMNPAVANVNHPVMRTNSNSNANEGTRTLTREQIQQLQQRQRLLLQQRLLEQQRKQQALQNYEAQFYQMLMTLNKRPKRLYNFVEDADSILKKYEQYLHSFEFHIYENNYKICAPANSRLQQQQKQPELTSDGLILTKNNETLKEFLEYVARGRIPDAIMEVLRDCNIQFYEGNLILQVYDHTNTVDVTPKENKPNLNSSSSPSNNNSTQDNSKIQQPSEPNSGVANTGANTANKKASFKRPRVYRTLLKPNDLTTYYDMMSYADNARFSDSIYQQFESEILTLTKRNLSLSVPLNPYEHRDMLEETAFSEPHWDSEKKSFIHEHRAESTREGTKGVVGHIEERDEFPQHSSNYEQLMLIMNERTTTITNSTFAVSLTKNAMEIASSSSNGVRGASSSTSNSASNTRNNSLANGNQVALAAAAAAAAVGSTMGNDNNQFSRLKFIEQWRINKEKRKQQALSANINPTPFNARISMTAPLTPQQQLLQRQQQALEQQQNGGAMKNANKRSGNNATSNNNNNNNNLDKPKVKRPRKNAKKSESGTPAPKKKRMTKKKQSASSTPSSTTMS", "test": "co-IP", "note": "No constants are given. Whether binding was seen depends on the method and setting. Binding seen in cells or lysates may run through a third protein. Some binding calls cover weakened binding; strength is not graded here. Where a sequence is shown, tags or fusion partners need not be part of it.", "data": [{"binder": "B1", "values": [{"measurement": "binding", "result": "binds"}]}]}
